Out of some 52,000 sequences screened, about 210 (0.4%) were called active.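 Rule for the calls: active = gene whose silencing raises cell survival under the drug, median off-target-corrected z-score across its silencing RNAs 2 or more; inactive = the rest.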 Some of the results follow.

Results on 66 sequences are retold here after PubChem BioAssay AID1347423 (Functional Genomics Laboratory (NCATS/FGL), 2020).

The nature of the assay: Resistance to Poly (ADP-Ribose) Polymerase inhibitor: Gene Identification via Genome-wide siRNA Screen. The settings on record: mouse BRCA2 R2336H ES cells, olaparib, CellTiter-Glo viability; active compounds read high. The gist of the method: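 Genome-wide siRNA screen (3 siRNAs/gene, 20 nM) in mouse ES cells carrying hypomorphic BRCA2 R2336H; olaparib 500 nM added 48 h post-transfection, CellTiter-Glo viability 72 h later. Normalized to plate-median negative control; MAD z-scores, gene median, seed-adjusted.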
Regarding GCCUCAUCAAUCCACUGCATT against BC060632, the z-score is inactive: 0.149.

For CGUAGUACCCAUGAAUUACTT against Adora2a, the z-score is inactive: 0.234.

As for “CCUGUAGGGCUUUUUGAAATT against 2700083E18Rik”, the z-score was inactive: 0.492.

For the sequence GCCGGCUACUGUAUUGAAUTT against Mamdc2, the z-score was inactive: 1.95.

Consider CCCAUGAUUCCAGAAAAGATT against BC021785, for which the z-score was inactive: -0.63.

Regarding GGUCAUCAAUGCCACAGCUTT against Lpo, the z-score is inactive: 0.584.

As for GCAUCACGUACGCCAUCAUTT against AI194318, the z-score was inactive: -1.98.

On to GGAUGUGACUAGAAUCAUCTT against Carkl, for which the z-score is inactive: 1.84.

“GGUUAUCAGAGGUUUAGUUTT against 3230401D17Rik”: the z-score is inactive: 1.66.

As for GCCAUUUACAUCUACAUUATT against Olfr1338, the z-score was inactive: -0.219.

Take GGAUUUUCUGGAGUUGAUGTT against Mcoln2: the z-score was inactive: 1.6.

For CGAGAUUGAUAGUACAUUCTT against Olfr1229, the z-score is inactive: 1.

“GGUCCAAUGGAUUUUGUUUTT against 1300014I06Rik”: the z-score is inactive: 0.261.

Turning to GGUGGACGGACAUUUUGUUTT against Rab9, the z-score was inactive: 0.739.

Consider “GGUUCACAGUAACCAUUGGTT against 5830416A07Rik”, for which the z-score was inactive: -0.652.

Regarding “GGAUCAAUUGACCACAAACTT against 6530407C02Rik”, the z-score was inactive: 0.175.

On to GGAAUCCUGUUCCUUAUCATT against Slc43a3, for which the z-score is inactive: 1.15.

Regarding “CGCAAUGUGUUGGGCCUCATT against F730038I15Rik”, the z-score is inactive: -1.21.

For GGCAGAUGCCAAUGAGGAATT against Cst3, the z-score was inactive: -0.723.

Regarding GAUUGGAACUUGUGGAUCUTT against Defb8, the z-score was inactive: -1.28.

On to GGACCAAGGCCUCACAAAATT against Nppb, for which the z-score is inactive: 0.093.

For the sequence GGGCACACUGAUGUGGUCATT against Fem1b, the z-score is inactive: 1.6.

Regarding GCACAAGCCUCAAGACGUATT against Mgat4b, the z-score was inactive: 0.986.

For “GCUCCAUGAAUGUCCAACATT against 4930544G21Rik”, the z-score is inactive: 0.223.

As for “GGAAACACAUCAUUUGAUGTT against D1Bwg0491e”, the z-score was inactive: 1.66.

In the case of GGUCCUCAAUGAAAUGAGATT against Krt1-12, the z-score is inactive: -1.61.

GGUAUCAAGGCUCUGGUGUTT against Il28ra: the z-score is inactive: 1.34.

GGAAGGCCAUUUCAACUAATT against Olfr1367: the z-score was inactive: 0.314.

For the sequence “GGCCAUCUUGAAUUUUUUATT against 2410002F23Rik”, the z-score was inactive: 0.317.

As to GCAUCAUUAUCUCGGUACUTT against Izumo1, the z-score was inactive: -0.671.

As to GCUCAAUCGAUACUCAGAUTT against Lzts1, the z-score was inactive: 0.449.

“GCAAUUUCUAUUUGGUGGGTT against B630019K06Rik”: the z-score was inactive: -0.201.

Consider GGUCUAUGCAAUAAAGGUUTT against Sphk2, for which the z-score was inactive: -0.0369.

Consider “GGCAAGACCCAUUAAAUGATT against B230219D22Rik”, for which the z-score was inactive: 0.0667.

Consider GGACGGAUCUGAAAGAUACTT against Zfp251, for which the z-score is inactive: 0.921.

For ACAAUGGUGAGUAAUAGCATT against Olfr730, the z-score was inactive: -0.137.

In the case of “GCCUUACUACUACAACAACTT against 2610317D23Rik”, the z-score is inactive: 1.72.

GGUUAGACCAAUAAAAAGCTT against Pfdn1: the z-score was inactive: 0.217.

In the case of GGUCUUUCAAGUUGCAUACTT against Lama1, the z-score is inactive: -0.316.

Consider “CCGUACAGAUUGAGAAUACTT against 0910001K20Rik”, for which the z-score is inactive: 0.64.

For GGCAAAUGGAAACAGCCAUTT against Serpina1d, the z-score was inactive: 0.00508.

In the case of CGUUGUUCUUAUCCUGAGGTT against Olfr448, the z-score is inactive: -1.04.

GGCAUUUUCGUAUAGUUACTT against C76566: the z-score was inactive: -0.862.

For the sequence GGUUCUUUUUGGUUUAGGUTT against Tm9sf4, the z-score was inactive: 1.27.

On to GGAAAUGCAGUUGUGAAUGTT against Rab4a, for which the z-score was inactive: 1.71.

For GGGUCCAAUAAACAUGUCUTT against B3galt4, the z-score was inactive: 2.55.

As for CCUGUGCUCUUAUUAUCAATT against Rpp14, the z-score was inactive: -0.156.

Take CCGCCAUGACAUUAUGCUGTT against Klk15: the z-score was inactive: 1.14.

On to “GGAUAAUUGAUCAUAGAGGTT against 1810045K17Rik”, for which the z-score was inactive: 0.0152.

For the sequence “GGAGAAAAUCAAACCAGAUTT against 2810457M08Rik”, the z-score was inactive: 0.415.

Turning to GGCCUAUCAGAUAAAGAAGTT against BC026744, the z-score is inactive: 1.26.

As for CGACCCAAUCGAUGUUUGUTT against Pyp, the z-score is inactive: -0.399.

On to GGUAUUCAAGGUAAGAAAGTT against Ercc5, for which the z-score is inactive: -0.34.

Consider “GGGCUUUCUCCAAUCGUAATT against B930018B01”, for which the z-score was inactive: -0.673.

Regarding GCAAGUUUCACAGAAUGACTT against Loxl4, the z-score was inactive: 2.1.

As for CCUACAGAGACUAUUCACUTT against Fiz1, the z-score is inactive: -0.0405.

As to CCGGCUAAACAUUAUUCAUTT against Fpgs, the z-score is inactive: 0.213.

With CCUCAUGUCUGGCAUCUUGTT against Egr4, the z-score is inactive: 0.544.

With GCUCAGUAAUCUGAGGCCATT against Lox, the z-score is inactive: -1.32.

Regarding GGCUGAGUUACGGUUAAAGTT against Ndufb5, the z-score was inactive: -0.523.

For GGUAGACUCUAGCUUCCUCTT against Admr, the z-score was inactive: 2.67.

As for CCUCAGUGGUAUAGAGGUATT against Gpr84, the z-score is inactive: -0.792.

As for GGUUUCUCGAGAAGUUACCTT against Nab1, the z-score is inactive: -0.1.

As to GGCAUCAUAAUGGCAUCGGTT against Aoc2, the z-score is inactive: -0.247.

Turning to GGCGGUUAGACAUUAUGGATT against MGC41689, the z-score was inactive: 0.521.

As to GGGCCACAAAGAAAUCAUATT against AI553587, the z-score was inactive: -0.124.
